Experimental data published in the supplement of paper PMC11546906.
The list shows a part of the results. Single values are uncertain here, since repeats match poorly.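 FDA-approved drugs were each paired with colistin at one-eighth its MIC and screened against a multidrug-resistant, mcr-1-positive clinical E. coli isolate, with OD600 read after 24 h. Drug-free bacteria served as growth control, plain broth as blank. Combinations were active if OD600 dropped below 0.2.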

System: Escherichia coli 42 (mcr-1-positive clinical isolate)
Assay: OD600 after 24 h growth with compound plus colistin (absorbance units (OD600)); higher = more bacterial growth (less inhibition)
Settings: first compound 25 µM; colistin concentration 0.5 ug/mL; incubation time 24 h; 37 °C

SMILES | OD600
C[N+]1(C)[C@@H]2C[C@@H](OC(=O)C(O)(c3cccs3)c3cccs3)C[C@H]1[C@@H]1O[C@@H]12 [Tiotropium bromide] + CCC(C)CCCC(=O)N[C@@H](CCN)C(=O)N[C@H](C(=O)N[C@@H](CCN)C(=O)N[C@H]1CCNC(=O)[C@H]([C@@H](C)O)NC(=O)[C@H](CCN)NC(=O)[C@H](CCN)NC(=O)[C@H](CC(C)C)NC(=O)[C@@H](CC(C)C)NC(=O)[C@H](CCN)NC1=O)[C@@H](C)O [colistin] | inactive: 0.956
CCN1CCN(C(=O)N[C@@H](C(=O)N[C@@H]2C(=O)N3[C@@H]2SC(C)(C)[C@@H]3C(=O)O)c2ccccc2)C(=O)C1=O [Piperacillin sodium] + CCC(C)CCCC(=O)N[C@@H](CCN)C(=O)N[C@H](C(=O)N[C@@H](CCN)C(=O)N[C@H]1CCNC(=O)[C@H]([C@@H](C)O)NC(=O)[C@H](CCN)NC(=O)[C@H](CCN)NC(=O)[C@H](CC(C)C)NC(=O)[C@@H](CC(C)C)NC(=O)[C@H](CCN)NC1=O)[C@@H](C)O [colistin] | inactive: 1.04
CCN(CC)C(=S)SSC(=S)N(CC)CC [Disulfiram] + CCC(C)CCCC(=O)N[C@@H](CCN)C(=O)N[C@H](C(=O)N[C@@H](CCN)C(=O)N[C@H]1CCNC(=O)[C@H]([C@@H](C)O)NC(=O)[C@H](CCN)NC(=O)[C@H](CCN)NC(=O)[C@H](CC(C)C)NC(=O)[C@@H](CC(C)C)NC(=O)[C@H](CCN)NC1=O)[C@@H](C)O [colistin] | inactive: 0.407
